Results: publication PMC12240770
Results are given in words; binding and its absence hold for the method and conditions named. In cells and extracts the contact can be indirect. Here binding means that the protein was enriched with, or labelled near, the bait; the list need not be complete.

Sequences of proteins named here, by UniProt entry; tags and fusion partners are left off.
UniProt Q8BGW1: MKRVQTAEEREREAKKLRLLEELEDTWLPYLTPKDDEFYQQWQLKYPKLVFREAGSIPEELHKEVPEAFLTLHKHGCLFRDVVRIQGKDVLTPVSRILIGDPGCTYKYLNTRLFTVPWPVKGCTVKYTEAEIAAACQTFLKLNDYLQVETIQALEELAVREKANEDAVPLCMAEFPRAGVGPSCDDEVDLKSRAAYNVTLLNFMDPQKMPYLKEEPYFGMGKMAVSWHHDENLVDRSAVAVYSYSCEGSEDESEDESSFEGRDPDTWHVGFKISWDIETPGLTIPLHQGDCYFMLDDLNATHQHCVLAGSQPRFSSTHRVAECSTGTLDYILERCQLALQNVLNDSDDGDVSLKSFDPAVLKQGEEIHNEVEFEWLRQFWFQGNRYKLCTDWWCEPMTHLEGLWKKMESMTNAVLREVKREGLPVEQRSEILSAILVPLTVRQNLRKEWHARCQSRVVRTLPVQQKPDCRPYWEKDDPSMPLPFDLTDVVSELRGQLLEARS

Target: fat mass and obesity-associated protein (FTO), endogenous in BMDMs (mouse (endogenous in BMDMs)) (UniProt Q8BGW1)
Assay: affinity purification with mass spectrometry; BMDMs with or without LPS for 12 h, RIPA lysate; anti-FTO plus protein-A/G magnetic beads; bands cut from SDS-PAGE, LC-MS

B1: tripartite motif family member TRIM21, endogenous in mouse macrophages (enzyme, UniProt Q62191 1-470)
chain: MSPSTTSKMSLEKMWEEVTCSICLDPMVEPMSIECGHCFCKECIFEVGKNGGSSCPECRQQFLLRNLRPNRHIANMVENLKQIAQNTKKSTQETHCMKHGEKLHLFCEEDGQALCWVCAQSGKHRDHTRVPIEEAAKVYQEKIHVVLEKLRKGKELAEKMEMDLTMQRTDWKRNIDTQKSRIHAEFALQNSLLAQEEQRQLQRLEKDQREYLRLLGKKEAELAEKNQALQELISELERRIRGSELELLQEVRIILERSGSWNLDTLDIDAPDLTSTCPVPGRKKMLRTCWVHITLDRNTANSWLIISKDRRQVRMGDTHQNVSDNKERFSNYPMVLGAQRFSSGKMYWEVDVTQKEAWDLGVCRDSVQRKGQFSLSPENGFWTIWLWQDSYEAGTSPQTTLHIQVPPCQIGIFVDYEAGVVSFYNITDHGSLIYTFSECVFAGPLRPFFNVGFNYSGGNAAPLKLCPLKM
With B1 the binding was “binds”.
